From US8440718B2, “Modulation of inflammation related to columnar epithelia” (The Brigham and Women's Hospital, Inc., priority 1991, dated 2013)
Values joined by “and” are separate entries in the source; they are usually repeats but may differ in a detail not shown here. Equal entries are not always repeated.

Test system: human PMN migration across T84 epithelial monolayers
Test: Effect of inhibitors on baseline and LXA4-elicited PMN transepithelial migration, apical-to-basolateral
Type: cell-based

For `CN[C@@H]1C[C@H]2O[C@@](C)([C@@H]1OC)n1c3ccccc3c3c4c(c5c6ccccc6n2c5c31)C(=O)NC4` [staurosporine], the “inhibition of baseline PMN transepithelial migration vs vehicle control” value was 93±5% and 96±9%, the inhibition at 1 pM (Homo sapiens, staurosporine 0.001 nM, read-out: inhibition of baseline PMN transepithelial migration compared to vehicle controls) was 11 ± 6% and the inhibition at 10 pM (Homo sapiens, staurosporine 0.01 nM, read-out: inhibition of baseline PMN transepithelial migration compared to vehicle controls) was 35 ± 11%. It also gave an inhibition at 0.0001 µM (Homo sapiens, staurosporine 0.1 nM, read-out: inhibition of baseline PMN transepithelial migration compared to vehicle controls) of 54 ± 8%, an inhibition at 0.001 µM (Homo sapiens, staurosporine 1 nM, read-out: inhibition of baseline PMN transepithelial migration compared to vehicle controls) of 67 ± 11% and an inhibition at 0.1 µM (Homo sapiens, staurosporine 100 nM, read-out: inhibition of baseline PMN transepithelial migration compared to vehicle controls) of 94 ± 4%. For the same compound, the “inhibition of LXA4-elicited increment in migration compared to vehicle control” value (staurosporine with LXA4 10 nM) was 89±7%.
